The text below walks through data of paper PMC5996148.

The other results are listed elsewhere or left out.

Assay in all cases: protein microarray (ProtoArray v5.0), streptavidin-Alexa Fluor 647
Conditions in all cases: 3'-biotin; 20 mM Tris (pH 7.5), 5 mM MgCl2, 100 mM KCl, 0.1% Tween-20, A/T-rich and random oligonucleotide blockers; temperature not stated; high values mean tight binding

The subject of test [1] is LYPLA2 (human).
Test [2] deals with LYPLAL1 (human).
Test [3] relates to LYRM5 (human).
Test [4] relates to LYSMD2 (human).
Test [5] has as its system LYSMD3 (human).
Test [6] deals with LYZL1 (human).
Test [7] has as its system LYZL2 (human).
In test [8] the test system is LYZL6 (human).
In test [9] the test system is LZIC (human).
Test [10] concerns LZTR2 (human).
Test [11] relates to Lactation elevated protein 1 (human).
Test [12] deals with Lactoylglutathione lyase (human).
Test [13] deals with Leptin receptor gene-related protein (human).
The subject of test [14] is Leucine carboxyl methyltransferase 1 (human).
For test [15], the system named is Leucine-rich repeat and fibronectin type-III domain-containing protein 4 (human).
Test [16] has as its system Leucine-rich repeat serine/threonine-protein kinase 1 (human).
Test [17] has as its system Leucine-rich repeat-containing protein 61 (human).
Test [18] concerns Leukemia-associated protein 1 (human).
In test [19] the test system is Leukocyte common antigen (human).
Test [20] concerns Leukocyte tyrosine kinase receptor (human).

Regarding “GGGAGGCTGAGGCAGG [G4-1 biotinylated (PQS2)]”, the binding signal in test [1] was -0.314 z-score; in test [2], -0.35 z-score; in [3] it was -0.309 z-score; in [4], -0.354 z-score; in [5], -0.342 z-score; in test [6] it was -0.278 z-score. Moreover, the binding signal is -0.327 z-score in [7]; -0.342 z-score in test [8]; -0.362 z-score in [9]; -0.281 z-score in test [10]; -0.334 z-score in [11]; -0.33 z-score in test [12]. Further, the binding signal in test [13] was -0.344 z-score; in [14] it was -0.342 z-score; in test [15], -0.296 z-score; in [16] it was -0.324 z-score; in [17] it was -0.311 z-score; in [18] it was -0.304 z-score. For the same sequence, the binding signal was -0.326 z-score in test [19] and -0.25 z-score in [20].
